# PubChem BioAssay AID504842 (National Center for Advancing Translational Sciences (NCATS), 2011)
# Screen size: about 330,000 compounds; about 100 (0.03%) were called active. The shares of active, inactive and inconclusive entries below differ from those in the screen. The call rests on the fitted dose curve; in most records, active means well fitted inhibition curve with a large enough effect; inconclusive means small, poorly fitted or top-dose-only effect; inactive means flat fitted curve, though single readings scatter. Potencies beside an inconclusive call are fits to weak or partial responses and may not hold up.
# System: Chaperonin Mm-Cpn (Methanococcus maripaludis)
# Experiment: Inhibitors of TCP-1 ring complex (TRiC) of Methanococcus maripaludis (MmCpn): qHTS; further: nearly all actives have a fitted effect of over 80% in size;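 on Potency: enzyme at 25 nM with ATP substrate at 10 µM during the reaction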
# Settings: purified Mm-Cpn ATPase, ADP Transcreener TR-FRET; activity, negative = inhibition: at the top concentration
# Procedure, shortened: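 ATP (10 uM final) was added to archaeal chaperonin (25 nM final) after 10 min exposure to test compound at 37°C; after 30 min further incubation, ADP was detected by competitive TR-FRET.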
# On the % scale 0 is the no-effect control and ±100 the full control effect; potency means the concentration at half of the fitted maximal effect.
Structure (SMILES),"activity, negative = inhibition",Potency
Fc1ccccc1/C=N/n1c(C2CCCCC2)n[nH]c1=S,inactive: 1.38%,
C=C(C)CSc1cc(C)c(C#N)c2nc3ccccc3n12,,"inconclusive: 25.1 µM [inhibitor, single point]"
CC(=O)N1CCN(c2ccccc2NC(=O)c2ccc(C#N)cc2F)CC1,,"inconclusive: 89.1 µM [inhibitor, single point]"
Cc1nn2c(=O)cc(CSCC(=O)Nc3ccccc3Cl)nc2s1,,"inconclusive: 31.6 µM [inhibitor, single point]"
COc1ccc(-n2nc(C(=O)NCC(=O)N3CCCCCC3)c3ccccc3c2=O)c(OC)c1,inactive: -0.728%,
COc1cccc(NC(=O)Nc2ccc3c(c2)nnn3C)c1,inactive: -12.7%,
O=C(C1CN(C(=O)c2cc3cc(Cl)ccc3o2)c2ccccc2O1)N1CCCCC1 (centres undefined),inactive: 2.12%,
O=C1CCCC(O)=C1N=Nc1ccc2c(c1)OCO2,inactive: -0.267%,
CC1=C(C#N)C(c2ccccc2O)C(C#N)=C(C)N1,,"inconclusive: 31.6 µM [inhibitor, single point]"
CCCCN1CCc2c1nc1ccc(Br)cc1c2N,,"inconclusive: 22.4 µM [inhibitor, single point]"
O=C(NCc1ccncc1)Nc1cccc(Cl)c1,,"inconclusive: 89.1 µM [inhibitor, single point]"
COc1ccc(NC(=S)N2CCN(C(=O)c3ccco3)CC2)cc1,inactive: -1.51%,
Cc1ccc(OCc2n[nH]c(=S)n2-c2ccc(Br)cc2)cc1,,"inconclusive: 100 µM [inhibitor, single point]"
O=C(O)c1cc(-c2cccs2)nc2ccc(Br)cc12,,"inconclusive: 316 µM [inhibitor, partial curve, poor fit]"
Cc1cc(Cl)ccc1OCC(=O)Nc1ccccc1C(=O)N1CCOCC1,inactive: 2.15%,
CCOc1nc(-c2ccc(OC)cc2)ccc1-c1noc(C)n1,,"inconclusive: 89.1 µM [inhibitor, single point]"
O=C(NCc1ccc(-c2nc3ccccc3s2)cc1)c1ccc(Br)o1,,"inconclusive: 447 µM [inhibitor, partial curve, poor fit]"
c1coc(-c2nn3c(-c4ccco4)nnc3s2)c1,inactive: -7.53%,
Cc1cc(C)cc(NC(=O)Cn2nnc(C(=O)NCc3ccco3)c2N)c1,,"inconclusive: 63.1 µM [inhibitor, single point]"
COC(=O)Cc1c(C)nc2nc(NCc3c(F)cccc3Cl)[nH]n2c1=O,,"inconclusive: 15.8 µM [inhibitor, single point]"
O=C(CNC(=O)N1CC(=O)Nc2ccccc21)NCc1ccccc1,inactive: 3.14%,
O=C(NCc1n[nH]c(=S)n1Cc1ccccc1)c1ccc(Cl)cc1Cl,,"inconclusive: 126 µM [inhibitor, partial curve, poor fit]"
O=C1c2cc(Br)ccc2N(Cc2ccc(Br)cc2)S(=O)(=O)C1c1cc(Cl)c(Cl)cc1[N+](=O)[O-] (centres undefined),,"inconclusive: 56.2 µM [inhibitor, single point]"

# Arranged by SMILES length (falling): part of the list above.
Structure (SMILES),"activity, negative = inhibition",Potency
O=C1c2cc(Br)ccc2N(Cc2ccc(Br)cc2)S(=O)(=O)C1c1cc(Cl)c(Cl)cc1[N+](=O)[O-] (centres undefined),,"inconclusive: 56.2 µM [inhibitor, single point]"
CCOc1nc(-c2ccc(OC)cc2)ccc1-c1noc(C)n1,,"inconclusive: 89.1 µM [inhibitor, single point]"
Fc1ccccc1/C=N/n1c(C2CCCCC2)n[nH]c1=S,inactive: 1.38%,
O=C(O)c1cc(-c2cccs2)nc2ccc(Br)cc12,,"inconclusive: 316 µM [inhibitor, partial curve, poor fit]"
c1coc(-c2nn3c(-c4ccco4)nnc3s2)c1,inactive: -7.53%,

# (next part)

Structure (SMILES),"activity, negative = inhibition",Potency
Cc1ccc(-n2nnnc2SCC(=O)c2ccc3c(c2)NC(=O)CO3)c(C)c1,,"inconclusive: 89.1 µM [inhibitor, single point]"
CCOC(=O)COc1ccc2nsnc2c1Cl,,"inconclusive: 126 µM [inhibitor, partial curve]"
COc1ccc(-n2cc(CNCCc3cnc[nH]3)c(-c3cccc(F)c3)n2)cc1,,"inconclusive: 14.1 µM [inhibitor, single point]"
COc1cccc(NC(=O)CSc2nc3c(sc4ccccc43)c(=O)n2CCN(C)C)c1,,"inconclusive: 14.1 µM [inhibitor, single point]"
O=C(N/N=C/c1cccc([N+](=O)[O-])c1)C1COc2ccccc2O1 (centres undefined),,"inconclusive: 89.1 µM [inhibitor, single point]"
Cc1cccc(NC(=O)Nc2ccc3c(c2)CCC3)c1,,"inconclusive: 14.1 µM [inhibitor, single point]"
O=C(NCc1ccncc1)C1CCCN(S(=O)(=O)c2ccc(Br)cc2)C1 (centres undefined),,"inconclusive: 63.1 µM [inhibitor, single point]"
Cc1noc(NS(=O)(=O)c2ccc(N/C=C\C(=O)c3ccc(Br)cc3)cc2)c1C,,"inconclusive: 11.2 µM [inhibitor, partial curve, poor fit]"
Cc1c(C(=O)c2ccccc2C(=O)O)sc2ccccc12,,"inconclusive: 282 µM [inhibitor, partial curve, poor fit]"
CC(=O)Nc1ncc2c(n1)CC(c1ccco1)CC2=O (centres undefined),inactive: 1.7%,
COc1ccccc1CNC(=O)COC(=O)/C=C/c1cccs1,,"inconclusive: 11.2 µM [inhibitor, single point]"
c1ccn2c(c1)nc1c2nc2ccccn21,,"inconclusive: 15.8 µM [inhibitor, single point]"
Cc1ccc(S(=O)(=O)/N=C2\C=C(Nc3cccc(C(=O)O)c3)C(=O)c3ccccc32)cc1,inactive: -5.8%,
Cc1ccc(CN2CCN(Cc3cccn3-c3nccs3)CC2CCO)cc1 (centres undefined),,"inconclusive: 14.1 µM [inhibitor, single point]"
CCN(CC(=O)Nc1ccccc1C(F)(F)F)C(=O)CCOc1ccccc1C,,"inconclusive: 12.6 µM [inhibitor, single point]"
O=C(O)c1nn2cc(CCO)cnc2c1Cl,,"inconclusive: 100 µM [inhibitor, single point]"
COCCC(C(=O)Oc1c(C(C)(C)C)cc(C)cc1C(C)(C)C)c1ccccc1 (centres undefined),,"inconclusive: 6.31 µM [inhibitor, single point]"
O=C(c1cc2ccccc2cc1O)N1CCCC1,,"inconclusive: 22.4 µM [inhibitor, single point]"
O=C(Nc1ccccc1)Oc1ccccc1N1CCOCC1,,"inconclusive: 100 µM [inhibitor, single point]"
COc1ccc2nc(SCC(=O)Nc3ccc4sc(C)nc4c3)c(C#N)cc2c1,,"inconclusive: 100 µM [inhibitor, single point]"
C=CC[n+]1c(-c2ccc(OCC)cc2)csc1NNC(=O)Nc1ccccc1,,"inconclusive: 89.1 µM [inhibitor, single point]"
CCCOc1ccc(C2NC(=S)NC(c3ccccc3)=C2C(=O)Nc2ccc(C)cc2)cc1OC (centres undefined),,"inconclusive: 89.1 µM [inhibitor, single point]"
Cc1ccc(S(=O)(=O)c2nc(S(C)(=O)=O)sc2NCc2ccc3c(c2)OCO3)cc1,,"inconclusive: 100 µM [inhibitor, partial curve, poor fit]"

Structure (SMILES),"activity, negative = inhibition",Potency
C=C(C)Cn1c(C)cc(C)c(S(=O)(=O)c2ccc(C)cc2)c1=O,,"inconclusive: 25.1 µM [inhibitor, single point]"
CCC(=O)Nc1nc2ccc(NC(=O)c3cc(OC)c(OC)c(OC)c3)cc2s1,,"inconclusive: 5.01 µM [inhibitor, single point]"
COc1ccc(C2C=C(c3ccc(Br)s3)Nc3ncnn32)cc1OC (centres undefined),,"inconclusive: 158 µM [inhibitor, partial curve, poor fit]"
O=C(CCl)N(c1ccccc1)C1CCS(=O)(=O)C1 (centres undefined),,"inconclusive: 50.1 µM [inhibitor, single point]"
COc1ccc(C(=S)N2CCCC2)cc1Br,inactive: 0.0462%,
Cc1cccc(C(=O)NNS(=O)(=O)c2ccccc2)c1O,inactive: -1.29%,
C=C[C@@H]1c2ccccc2N(S(=O)(=O)c2ccc(C)cc2)[C@H](c2ccccc2C(F)(F)F)C1(C#N)C#N,,"inconclusive: 89.1 µM [inhibitor, single point]"
CCOc1ccc(NC(=O)CN(C)C(=O)c2cc([N+](=O)[O-])ccc2N2CCCCC2)cc1OCC,inactive: -0.172%,
CC(=O)N1CCN(C(=O)c2ccc(-c3ccccc3Cl)o2)CC1,inactive: 0.309%,
O=C(Nc1ccc(Br)cc1)c1csc(-c2ccncc2)n1,,"inconclusive: 100 µM [inhibitor, single point]"
Cc1ccccc1N1C(=O)c2ccccc2C1O (centres undefined),,"inconclusive: 112 µM [inhibitor, single point]"
CNC(=O)c1ccsc1NC(=O)c1ccc(S(=O)(=O)N2CCCc3ccccc32)cc1,,active: 28.2 µM
N#Cc1c(Cl)nc(SCc2ccccc2)nc1-c1ccccc1,,"inconclusive: 200 µM [inhibitor, partial curve, poor fit]"
COCCN=C1Sc2nc3cc(C)c(C)cc3cc2CN1Cc1cccs1,,"inconclusive: 100 µM [inhibitor, single point]"
CO/N=C/CC(=O)c1ccc([N+](=O)[O-])c(CS(=O)(=O)c2ccc(Cl)cc2)c1,inactive: -0.657%,
O=S(=O)(N=C(NS(=O)(=O)c1ccc(Cl)cc1)c1ccccc1)c1ccc(Cl)cc1,,"inconclusive: 20 µM [inhibitor, single point]"
Clc1nc(-c2cccnc2)nc2scc(-c3ccccc3)c12,,"inconclusive: 89.1 µM [inhibitor, single point]"
Oc1c(CN2CCCC(C(F)(F)F)C2)cc(Cl)c2ccccc12 (centres undefined),inactive: -1.62%,
Cc1ccc(C(O)C(=O)c2ccco2)cc1 (centres undefined),,"inconclusive: 22.4 µM [inhibitor, single point]"
COc1ccccc1-n1cnnc1SC(C)C(=O)Nc1ccc(NC(C)=O)cc1 (centres undefined),,"inconclusive: 14.1 µM [inhibitor, single point]"
COc1ccc(/C=C/C(=O)Nc2ccc(-n3nncc3-c3ccc(OC)c(OC)c3)cc2)cc1OC,,"inconclusive: 100 µM [inhibitor, single point]"
O=C1OC(=O)C2C3CCC(O3)C12 (centres undefined),inactive: 0.918%,
COc1nc(NCC(C)C)nc(Oc2ccc(OCc3ccccc3)nn2)n1,,"inconclusive: 100 µM [inhibitor, partial curve, poor fit]"
